Test results: PubChem BioAssay AID1347075 (National Center for Advancing Translational Sciences (NCATS), 2019)
In all, about 400,000 compounds went through this assay and about 5,500 (1.4%) were called active. The shares of active, inactive and inconclusive entries below differ from those in the screen. Calls come from the whole dose curve; as a rule, active = well fitted cell-killing curve with a large enough effect; inconclusive = small, poorly fitted or top-dose-only effect, or effect the other way; inactive = flat fitted curve, though single readings scatter. Potencies of inconclusive entries are doubtful fits and often do not repeat. Where a structure was tested more than once in an assay, its records may differ in their call.

Experiment: qHTS assay for MDR1-selective chemotherapeutics: Primary screen using the parental adenocarcinoma cell KB-3-1; note: nearly all actives have a fitted effect of over 60% in size
Conditions: KB-3-1 viability, CellTiter-Glo ATP luminescence, 72 h; activity change, negative = cytotoxic: at 46.1 µM (top of the series)
Summary of the method: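 Luminescent ATP read-out (CellTiter-Glo) measures survival of drug-naive KB-3-1 cells after 72 h compound exposure at 37 °C. Titration series was screened from lowest to highest concentration, with DMSO vehicle plates as background controls.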
% is set by controls: 0 for no effect and ±100 for the full control effect; potency is the fitted concentration of half-maximal effect.

Row | Structure (SMILES) | Potency | activity change, negative = cytotoxic
1 | NS(=O)(=O)c1ccc(CCNC(=O)COC(=O)C2COc3ccccc3O2)cc1 (stereo not drawn) | inactive | –
2 | NC(=O)C1CCN(C(=O)c2ccco2)CC1 | inactive | –
3 | COC(=O)CCc1cccc(CCC(=O)OC)c1 | inactive | –
4 | CCCCCCCCN1C(=O)[C@H](CC(=O)NCc2cccc3ccccc23)C[C@@]2(C(=O)OC)CC(C)(C)CC=C12 | inconclusive: 29.1 µM [cytotoxic, single point] | –
5 | CCCCCn1c(CN(C)Cc2ccccc2)nc2c1c(=O)n(C)c(=O)n2C | active: 18.4 µM | –
6 | Cc1ccc(NC(=S)NC(=O)c2ccc(F)cc2)cc1S(=O)(=O)Nc1cccc(Cl)c1 | active: 5.17 µM | –
7 | CC(NC(=O)Nc1nnc(C(F)(F)F)s1)(C(F)(F)F)C(F)(F)F | active: 13 µM | –
8 | O=c1c2c3c(sc2nc(NCCO)n1Cc1ccco1)CCCCC3 | inactive | –
9 | O=C(Nc1ccc2ccccc2c1)c1ccc2[nH]c(=O)c(=O)[nH]c2c1 | inactive | –
10 | COc1ccc(C=C(c2ccc(OC)cc2)c2ccc(OC)cc2)cc1 | inconclusive: 18.4 µM [cytotoxic, partial curve, poor fit] | –
11 | Cc1cc(C)c(S(=O)(=O)c2c(C)cccc2C)c(OCC(C)C)n1 | inconclusive: 29.1 µM [cytotoxic, single point] | –
12 | C=CCc1c(C)nc(C)nc1N/N=C/c1ccc(N(C)C)cc1 | inconclusive: 29.1 µM [cytotoxic, single point] | –
13 | CC(=O)N(c1ccc2oc(=O)sc2c1)S(=O)(=O)c1cccs1 | inconclusive: 18.4 µM [cytotoxic, partial curve, poor fit] | –
14 | CCc1c(C2(O)CCCCC2)[nH]c2cc(C(F)(F)F)ccc12 | inconclusive: 20.6 µM [cytotoxic, single point] | –
15 | CC(C)CC(=O)N1CCN(S(=O)(=O)c2ccc(C3CCCCC3)cc2)CC1 | inconclusive: 20.6 µM [cytotoxic, single point] | –
16 | O=C(Nc1ccc2nc(-c3cccnc3)[nH]c2c1)C12CC3CC(CC(C3)C1)C2 | active: 11.2 µM | –
17 | O=C(Nc1ccccc1Cl)c1cc(C2CCCN(S(=O)(=O)c3cccs3)C2)on1 (stereo not drawn) | inactive | –
18 | Cc1cccc2cc3c(N)c(C(=O)N4CCc5ccccc54)sc3nc12 | inconclusive: 23.1 µM [cytotoxic, partial curve, poor fit] | –
19 | CCCCN(CC(=O)NCc1ccc(F)cc1)C(=O)c1ccco1 | inactive | –
20 | CCN(CC)c1ccc(NC(=O)c2ccc(Cl)nc2)cc1 | active: 5.17 µM | –
21 | N#CCC(=O)Nc1ncn(Cc2ccccc2Cl)n1 | inactive | –
22 | OCC1OC(n2cnc3c(NCc4ccco4)ncnc32)C(O)C1O (stereo not drawn) | active: 13 µM | –
23 | OCCN1CCN(c2ncnc3c2ncn3[C@H]2CN(Cc3ccncc3)C[C@@H](CO)O2)CC1 | – | inconclusive: 0%

Row | Structure (SMILES) | Potency | activity change, negative = cytotoxic
24 | COCCn1c(SCC(=O)N2CCC(C)CC2)nc2c([nH]c3ccccc32)c1=O | inconclusive: 7.31 µM [rising, partial curve] | –
25 | Cc1ccc(C(=O)O/N=C(\N)c2ccccn2)c(Cl)c1 | inconclusive: 20.6 µM [cytotoxic, single point] | –
26 | CC1=C(C(=O)N2CCCCCC2)CC(CC(=O)NCc2cccs2)C(=O)N1CCC1=CCCCC1 (stereo not drawn) | inactive | –
27 | O=[N+]([O-])c1c(Nc2cccc(O)c2)cc(Cl)c2nonc12 | active: 18.4 µM | –
28 | O=[N+]([O-])c1ccc(Cl)c(CN2CCN(c3ncc(Cc4ccccc4)cn3)CC2)c1 | inconclusive: 3.66 µM [cytotoxic, full curve, poor fit] | –
29 | C=C1CC2(OC1=O)c1ccccc1CCc1ccccc12 | inconclusive: 16.4 µM [cytotoxic, single point] | –
30 | O=C(Nc1cccnc1)c1ccc2c(c1)C(=O)N(CC1CCCO1)C2=O (stereo not drawn) | inconclusive: 25.9 µM [rising, single point] | –
31 | Cc1cccc(Cn2c(SCC(=O)Nc3ccccc3)nc3c2c(=O)[nH]c(=O)n3C)c1 | – | inconclusive: 2.6%
32 | N#C/C(=C\c1ccc(N2CCOCC2)c([N+](=O)[O-])c1)c1nc2ccccc2[nH]1 | inconclusive: 5.8 µM [rising, partial curve] | –
33 | Cc1ccccc1NC(=O)C1CCCN(C(=O)Nc2ccc(F)cc2)C1 (stereo not drawn) | inconclusive: 8.2 µM [rising, partial curve, poor fit] | –
34 | O=C(Nc1cccc(-c2cccc(F)c2)c1)C1CCN(Cc2ccc(CO)o2)CC1 | inconclusive: 29.1 µM [cytotoxic, single point] | –
35 | C[C@H]1CN([C@@H](C)CO)C(=O)CCCn2cc(nn2)CO[C@@H]1CN(C)C(=O)Cc1ccccc1 | inconclusive: 1.46 µM [rising, full curve] | –
36 | CCOc1ccccc1NC(=O)c1ccccc1-c1nc(-c2ccccc2OC)no1 | inconclusive: 10.3 µM [cytotoxic, partial curve] | –
37 | CCCCn1c(=O)c2ccccc2n2c(=S)[nH]nc12 | inactive | –
38 | COc1ccc(CC2(CO)COc3ccccc3C2=O)cc1 (stereo not drawn) | inconclusive: 29.1 µM [cytotoxic, single point] | –
39 | COc1ccc(-c2noc(CSc3nc4ccccc4c(=O)n3-c3ccc(C)cc3)n2)cc1 | inconclusive: 3.66 µM [cytotoxic, partial curve, poor fit] | –
40 | Oc1ccc(C[C@H]2CN([C@@H](Cc3ccc(O)cc3)CN3CCC[C@@H]3CN3C(=S)NC[C@@H]3Cc3ccccc3)C(=S)N2CC2CCCCCC2)cc1 | inconclusive: 29.1 µM [cytotoxic, single point] | –
41 | Oc1oc(-c2cccc3ccccc23)nc1/C=N/c1nccs1 | inconclusive: 29.1 µM [rising, partial curve, poor fit] | –
42 | CC(=O)c1ccc(NS(=O)(=O)c2ccc3[nH]c(=O)[nH]c3c2)cc1 | inactive | –
43 | Fc1ccc(-c2cn3cc(C(F)(F)F)cc(Cl)c3n2)cc1 | inactive | –
44 | O=C(Nc1nnc(S(=O)(=O)N2CCCCC2)s1)c1cccc(Br)c1 | inconclusive: 29.1 µM [cytotoxic, single point] | –
45 | COc1ccc(Nc2cc(C)c3cc(NC(=O)COc4cccc(C)c4)ccc3n2)cc1 | inconclusive: 29.1 µM [cytotoxic, single point] | –
46 | C/C(=N\OC(=O)NC1CCCCC1)c1sc(-c2ccccc2)nc1C | inconclusive: 12.6 µM [cytotoxic, partial curve] | –

Some of these compounds in order of number of heavy atoms, largest number first.
Row | Structure (SMILES) | Potency | activity change, negative = cytotoxic
40 | Oc1ccc(C[C@H]2CN([C@@H](Cc3ccc(O)cc3)CN3CCC[C@@H]3CN3C(=S)NC[C@@H]3Cc3ccccc3)C(=S)N2CC2CCCCCC2)cc1 | inconclusive: 29.1 µM [cytotoxic, single point] | –
26 | CC1=C(C(=O)N2CCCCCC2)CC(CC(=O)NCc2cccs2)C(=O)N1CCC1=CCCCC1 (stereo not drawn) | inactive | –
35 | C[C@H]1CN([C@@H](C)CO)C(=O)CCCn2cc(nn2)CO[C@@H]1CN(C)C(=O)Cc1ccccc1 | inconclusive: 1.46 µM [rising, full curve] | –
45 | COc1ccc(Nc2cc(C)c3cc(NC(=O)COc4cccc(C)c4)ccc3n2)cc1 | inconclusive: 29.1 µM [cytotoxic, single point] | –
31 | Cc1cccc(Cn2c(SCC(=O)Nc3ccccc3)nc3c2c(=O)[nH]c(=O)n3C)c1 | – | inconclusive: 2.6%
28 | O=[N+]([O-])c1ccc(Cl)c(CN2CCN(c3ncc(Cc4ccccc4)cn3)CC2)c1 | inconclusive: 3.66 µM [cytotoxic, full curve, poor fit] | –
24 | COCCn1c(SCC(=O)N2CCC(C)CC2)nc2c([nH]c3ccccc32)c1=O | inconclusive: 7.31 µM [rising, partial curve] | –
32 | N#C/C(=C\c1ccc(N2CCOCC2)c([N+](=O)[O-])c1)c1nc2ccccc2[nH]1 | inconclusive: 5.8 µM [rising, partial curve] | –
33 | Cc1ccccc1NC(=O)C1CCCN(C(=O)Nc2ccc(F)cc2)C1 (stereo not drawn) | inconclusive: 8.2 µM [rising, partial curve, poor fit] | –
46 | C/C(=N\OC(=O)NC1CCCCC1)c1sc(-c2ccccc2)nc1C | inconclusive: 12.6 µM [cytotoxic, partial curve] | –
44 | O=C(Nc1nnc(S(=O)(=O)N2CCCCC2)s1)c1cccc(Br)c1 | inconclusive: 29.1 µM [cytotoxic, single point] | –
41 | Oc1oc(-c2cccc3ccccc23)nc1/C=N/c1nccs1 | inconclusive: 29.1 µM [rising, partial curve, poor fit] | –
38 | COc1ccc(CC2(CO)COc3ccccc3C2=O)cc1 (stereo not drawn) | inconclusive: 29.1 µM [cytotoxic, single point] | –
43 | Fc1ccc(-c2cn3cc(C(F)(F)F)cc(Cl)c3n2)cc1 | inactive | –
25 | Cc1ccc(C(=O)O/N=C(\N)c2ccccn2)c(Cl)c1 | inconclusive: 20.6 µM [cytotoxic, single point] | –
37 | CCCCn1c(=O)c2ccccc2n2c(=S)[nH]nc12 | inactive | –

Continuation.

Row | Structure (SMILES) | Potency | activity change, negative = cytotoxic
47 | COCCNC(=O)C1(C)CCN(C(=O)c2ccc(OC)c(F)c2)C1 (stereo not drawn) | inactive | –
48 | Cc1ccc(/C=N\NC(=O)c2cncc(Br)c2)o1 | inconclusive: 20.6 µM [rising, single point] | –
49 | COc1ccc(-c2c[n+](CC(=O)N3c4ccccc4Sc4ccccc43)c3n2CCC3)cc1 | inconclusive: 29.1 µM [cytotoxic, single point] | –
50 | CCN(CC)CCOc1ccc(/C(=C(/Cl)c2ccccc2)c2ccccc2)cc1 | inconclusive: 29.1 µM [cytotoxic, single point] | –
51 | COc1ccc(N(CC(=O)NC2CC3CCC2C3)S(=O)(=O)c2ccc(C)c([N+](=O)[O-])c2)cc1 (stereo not drawn) | inconclusive: 29.1 µM [cytotoxic, single point] | –
52 | N#Cc1nc(-c2ccccc2F)oc1N1CCN(C(=O)c2ccco2)CC1 | inconclusive: 29.1 µM [rising, single point] | –
53 | Cc1cccn2cc(-c3cccc(NC(=O)c4cccs4)c3)nc12 | inconclusive: 5.17 µM [rising, partial curve] | –
54 | COC(=O)c1ccc([N+](=O)[O-])cc1N1C(=O)C2C3CCC(C3)C2C1=O (stereo not drawn) | inactive | –
55 | Cc1ccc(NC(=O)COc2ccc(/C(N)=N/O)cc2)cc1C | inconclusive: 29.1 µM [rising, single point] | –
56 | CC(C)(C)n1nnnc1C(c1cccs1)N(Cc1ccc(Cl)cc1)CC1CCCO1 (stereo not drawn) | active: 23.1 µM | –
57 | O=S(=O)(c1ccc(F)cc1)N1CCN(Cc2ccccn2)CC1 | inconclusive: 5.17 µM [cytotoxic, full curve, poor fit] | –
58 | Cc1ccc(Nc2nc(CSc3nnnn3-c3ccccc3)cs2)cc1 | inconclusive: 18.4 µM [cytotoxic, single point] | –
59 | CC(O)Cc1cn([C@@H](CCCCN)C(=O)N2CCNCC2)nn1 (stereo partly drawn) | inconclusive: 32.6 µM [rising, partial curve, poor fit] | –
60 | COc1oc(C(=O)NC2CCCCC2)c(-c2ccc(Cl)cc2)c1S(=O)(=O)c1ccccc1 | inconclusive: 20.6 µM [cytotoxic, single point] | –
61 | Cc1ccc(NC(=O)C(=O)NCC2CCCN2S(=O)(=O)c2cccs2)cc1C (stereo not drawn) | inconclusive: 18.4 µM [cytotoxic, single point] | –
62 | COc1ccc(-c2[nH]c(-c3ccccc3)nc2SCC(=O)NCc2ccco2)cc1OC | inactive | –
63 | COc1ccc(/C=C2\SC(=S)N(Cc3cccnc3)C2=O)cc1C | inconclusive: 25.9 µM [cytotoxic, single point] | –
64 | COc1ccc(CNC(=O)c2nc(SC(C)C)ncc2Cl)cc1 | inconclusive: 18.4 µM [cytotoxic, partial curve, poor fit] | –
65 | Cc1cc(C(=O)OCC(=O)Nc2cccc(S(=O)(=O)N(C)C)c2)c2ccccc2n1 | inconclusive: 29.1 µM [rising, single point] | –
66 | O=c1c2cn[nH]c2nc(SCc2cccc(Br)c2)n1-c1ccc(Cl)cc1 | inactive | –
67 | N#CC(CC(=O)OCc1ccccc1)NC(=O)OCc1ccccc1 (stereo not drawn) | inconclusive: 29.1 µM [rising, single point] | –
68 | C[C@H](CO)N1C[C@H](C)[C@@H](CN(C)S(=O)(=O)c2cccs2)Oc2ccc(NC(=O)Nc3ccc(C(F)(F)F)cc3)cc2C1=O | inconclusive: 16.4 µM [cytotoxic, partial curve] | –
